No constants are given. Whether binding was seen depends on the method and setting. Some entries that bind do so weakly or less than the wild type. Blank lines part the entries; values can stand above or below the binder they belong to.
Experiments:
[1] = target: Tsg101 (aa 240-391) (human) (UniProt Q99816); assay: yeast two-hybrid
[2] = target: Tsg101 (aa 1-157) (human) (UniProt Q99816); assay: yeast two-hybrid
[3] = target: Tsg101 (aa 240-391) (human) (UniProt Q99816); assay: yeast two-hybrid, breast and prostate cancer library, bait printed as Tsg101 240-390
[4] = target: Tsg101 (aa 12-326) (human) (UniProt Q99816); assay: yeast two-hybrid
[5] = target: Tsg101 (aa 12-326) (human) (UniProt Q99816); assay: yeast two-hybrid, spleen library

By UniProt entry, the sequences of proteins in these tests, tags left out. Where a name states a change or a piece, a line headed by the entry shows the natural chain unless it says otherwise. Residues count along the entry.
UniProt Q99816: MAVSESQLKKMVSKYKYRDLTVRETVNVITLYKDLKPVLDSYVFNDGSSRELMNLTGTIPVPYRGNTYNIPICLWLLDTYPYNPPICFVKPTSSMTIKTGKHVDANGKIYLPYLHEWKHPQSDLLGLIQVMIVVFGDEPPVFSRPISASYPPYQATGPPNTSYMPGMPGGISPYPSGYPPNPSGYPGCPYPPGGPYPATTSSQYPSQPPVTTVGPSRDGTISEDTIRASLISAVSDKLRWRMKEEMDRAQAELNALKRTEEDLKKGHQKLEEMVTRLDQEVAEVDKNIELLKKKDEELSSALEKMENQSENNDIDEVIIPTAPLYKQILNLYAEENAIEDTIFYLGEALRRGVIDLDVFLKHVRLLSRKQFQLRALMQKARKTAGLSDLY
Tsg101 (aa 1-157): residues 1-157 of Q99816
Tsg101 (aa 12-326): residues 12-326 of Q99816
Tsg101 (aa 240-391): residues 240-390 of Q99816

B1: keratin 5 (aa 347-485) (protein, UniProt P13647 347-485, looked up)
chain: EEIANRSRTEAESWYQTKYEELQQTAGRHGDDLRNTKHEISEMNRMIQRLRAEIDNVKKQCANLQNAIADAEQRGELALKDARNKLAELEEALQKAKQDMARLLREYQELMNTKLALDVEIATYRKLLEGEECRLSGEG
binding [1]: binds

B2: keratin 5 (aa 9-171) (protein, UniProt P13647 9-171, looked up)
chain: FRSGGSRSFSTASAITPSVSRTSFTSVSRSGGGGGGGFGRVSLAGACGVGGYGSRSLYNLGGSKRISISTSGGSFRNRFGAGAGGGYGFGGGAGSGFGFGGGAGGGFGLGGGAGFGGGFGGPGFPVCPPGGIQEVTVNQSLLTPLNLQIDPSIQRVRTEEREQ
binding [2]: binds

B6: keratin 5 (aa 324-446) (protein, UniProt P13647 324-446, looked up)
chain: VLSMDNNRNLDLDSIIAEVKAQYEEIANRSRTEAESWYQTKYEELQQTAGRHGDDLRNTKHEISEMNRMIQRLRAEIDNVKKQCANLQNAIADAEQRGELALKDARNKLAELEEALQKAKQDM
binding [1]: binds

B7: keratin 5 (aa 384-475) (protein, UniProt P13647 384-475, looked up)
chain: HEISEMNRMIQRLRAEIDNVKKQCANLQNAIADAEQRGELALKDARNKLAELEEALQKAKQDMARLLREYQELMNTKLALDVEIATYRKLLE
binding [1]: binds

B9: PIBF1 (aa 392-758) (protein, UniProt Q8WXW3 392-757, looked up)
chain: IDQLRNASREMYERENRNLREARDNAVAEKERAVMAEKDALEKHDQLLDRYRELQLSTESKVTEFLHQSKLKSFESERVQLLQEETARNLTQCQLECEKYQKKLEVLTKEFYSLQASSEKRITELQAQNSEHQARLDIYEKLEKELDEIIMQTAEIENEDEAERVLFSYGYGANVPTTAKRRLKQSVHLARRVLQLEKQNSLILKDLEHRKDQVTQLSQELDRANSLLNQTQQPYRYLIESVRQRDSKIDSLTESIAQLEKDVSNLNKEKSALLQTKNQMALDLEQLLNHREELAAMKQILVKMHSKHSENSLLLTKTEPKHVTENQKSKTLNVPKEHEDNIFTPKPTLFTKKEAPEWSKKQKMKT
binding [4]: binds
binding [5]: binds

The next lines start with the values.

binding [1]: binds
B3: keratin 5 (aa 335-473) (protein, UniProt P13647 335-473, looked up)
chain: LDSIIAEVKAQYEEIANRSRTEAESWYQTKYEELQQTAGRHGDDLRNTKHEISEMNRMIQRLRAEIDNVKKQCANLQNAIADAEQRGELALKDARNKLAELEEALQKAKQDMARLLREYQELMNTKLALDVEIATYRKL

binding [3]: binds
B4: Hook2 (amino acids 132-428) (protein, UniProt Q96ED9 132-428, looked up)
chain: IQRIMTLEESVQHVVMEAIQELMTKDTPDSLSPETYGNFDSQSRRYYFLSEEAEEGDELQQRCLDLERQLMLLSEEKQSLAQENAGLRERMGRPEGEGTPGLTAKKLLLLQSQLEQLQEENFRLESGREDERLRCAELEREVAELQHRNQALTSLAQEAQALKDEMDELRQSSERAGQLEATLTSCRRRLGELRELRRQVRQLEERNAGHAERTRQLEDELRRAGSLRAQLEAQRRQVQELQGQRQEEAMKAEKWLFECRNLEEKYESVTKEKERLLAERDSLREANEELRCAQLQP

binding [1]: binds
B5: keratin 5 (aa 379-452) (protein, UniProt P13647 379-452, looked up)
chain: LRNTKHEISEMNRMIQRLRAEIDNVKKQCANLQNAIADAEQRGELALKDARNKLAELEEALQKAKQDMARLLRE

binding [1]: binds
B8: keratin 5 (aa 349-475) (protein, UniProt P13647 349-475, looked up)
chain: IANRSRTEAESWYQTKYEELQQTAGRHGDDLRNTKHEISEMNRMIQRLRAEIDNVKKQCANLQNAIADAEQRGELALKDARNKLAELEEALQKAKQDMARLLREYQELMNTKLALDVEIATYRKLLE

Reference: patent US7202329
